Literature values, collected in patent US20250230151A1, “COMPOUNDS FOR CANCERS DRIVEN BY BRAF MUTATION” (THE BOARD OF TRUSTEES OF THE UNIVERSITY OF ILLINOIS, priority 2021, published 2025).
For at least one compound, name, drawing or mass did not settle the structure.

System: pleomorphic xanthoastrocytoma with V600EBRAF
Details: cited from earlier work

## CCCS(=O)(=O)Nc1ccc(F)c(C(=O)c2c[nH]c3ncc(-c4ccc(Cl)cc4)cc23)c1F [Vemurafenib, reference compound]
  patients responding to V600EBRAF inhibition: four out of seven
